The list shows only some results of the screen, not a fair sample: it gathers tests that were run many times, whatever their T/C, doses with no T/C, and many T/C values between a quarter and a half above the control. Further doses and runs are listed elsewhere. T/C is the treated group as % of the vehicle group. Some doses have a count of surviving animals in place of a T/C: the source files T/C as zero there, which appears to mark a toxic dose or a test without result, not a measured value. Some doses without a T/C left all or most animals alive at the check, yet need not have been tolerated: survival well below the control is almost never listed, so the zero probably covers shortened survival too. Survivors were counted at the toxicity check, usually on the fifth day, unless a day is given; later deaths do not show. Schedules are NCI's codes, taken here to give the interval after Q, in days (D) or hours (H), and the number of doses after X. Some structures stand for samples that the source files as different forms (salt, stereo form or complex); doses refer to the form tested. For survival time, the PubChem record calls one and a half times the control and up active, and a quarter to a half above the control has no call in these data; cut-offs in other NCI protocols can differ. Some T/C values carry the count of animals alive at the toxicity check (mostly the fifth day); without a count, all were alive then. Some entries hold several experiments; the results are listed from low to high.
Test system: P388 leukemia ip, CD2F1 mice, survival T/C
Experiment: NCI In Vivo Anticancer Drug Screen. Data for tumor model P388 Leukemia (intraperitoneal) in CD2F1 (CDF1) mice
Conditions: T/C endpoint: median survival time, higher T/C = longer survival
[1] = dose: 50.0 mg/kg/injection, schedule: Q01DX009 (ip), vehicle: Klucel (hydroxypropylcellulose) (HPC)
[2] = dose: 200.0 mg/kg/injection, schedule: Q01DX009 (ip), vehicle: Klucel (hydroxypropylcellulose) (HPC)
[3] = dose: 100.0 mg/kg/injection, schedule: Q01DX005 (ip), vehicle: Klucel (hydroxypropylcellulose) (HPC)
[4] = dose: 200.0 mg/kg/injection, schedule: Q01DX005 (ip), vehicle: Klucel (hydroxypropylcellulose) (HPC)
[5] = dose: 50.0 mg/kg/injection, schedule: Q01DX009 (ip), vehicle: saline with Tween-80
[6] = dose: 100.0 mg/kg/injection, schedule: Q01DX009 (ip), vehicle: saline with Tween-80
[7] = dose: 200.0 mg/kg/injection, schedule: Q01DX009 (ip), vehicle: saline with Tween-80
[8] = dose: 75.0 mg/kg/injection, schedule: Q01DX009 (ip), vehicle: saline with Tween-80
[9] = dose: 100.0 mg/kg/injection, schedule: Q04DX003 (ip), vehicle: saline with Tween-80
[10] = dose: 200.0 mg/kg/injection, schedule: Q04DX003 (ip), vehicle: saline with Tween-80
[11] = dose: 400.0 mg/kg/injection, schedule: Q04DX003 (ip), vehicle: saline with Tween-80
[12] = dose: 240.0 mg/kg/injection, schedule: Q01DX005 (ip), vehicle: saline with Tween-80
[13] = dose: 50.0 mg/kg/injection, schedule: Q01DX005 (ip), vehicle: Klucel (hydroxypropylcellulose) (HPC)
[14] = dose: 100.0 mg/kg/injection, schedule: Q01DX009 (ip), vehicle: Klucel (hydroxypropylcellulose) (HPC)
[15] = dose: 12.5 mg/kg/injection, schedule: Q01DX005 (ip), vehicle: Klucel (hydroxypropylcellulose) (HPC)

CCCCCCC(/C=C/c1ccc(Cl)cc1)=N\O
survivor count [1]: 6 of 6 | survivor count [2]: 6 of 6

[Cl][Pt+2][Cl].[NH-]c1ccc(S(=O)(=O)O)cc1[NH-]
T/C (dose: 100.0 mg/kg/injection, schedule: Q04DX002 (ip), vehicle: saline with Tween-80): 143 % of control

N/N=C(/N)C1=NOCC1
survivor count (dose: 400.0 mg/kg/injection, schedule: Q04DX002 (ip), vehicle: saline): 3 of 6

O=C(Nc1ncc([N+](=O)[O-])s1)c1cc(Cl)cc(Cl)c1
survivor count [3]: 0 of 6 | survivor count [4]: 1 of 6

Oc1ccc(C2(c3ccc(O)c(Cl)c3)CC3CCC2C3)cc1Cl (stereo unspecified)
T/C (dose: 6.25 mg/kg/injection, schedule: Q01DX009 (ip), vehicle: saline with Tween-80): 126 % of control | survivor count [5]: 6 of 6 | survivor count [6]: 5 of 6 | survivor count [7]: 5 of 6

Cc1ccc(N=NN(C)C)cc1
T/C [5]: 145 % of control | T/C [8]: 136 % of control | survivor count [9]: 5 of 6 | survivor count [10]: 5 of 6 | survivor count [11]: 0 of 6

CC(C)C1[NH][Sn]2([NH]C(C(C)C)C(=O)[O]2)[O]C1=O (stereo unspecified)
survivor count [4]: 1 of 6

O=C1OCC2CC3C4C=CC(C4)C3C12 (stereo unspecified)
survivor count [4]: 0 of 6

Cc1ccc(NC(=O)C#N)cc1
survivor count (dose: 60.0 mg/kg/injection, schedule: Q01DX005 (ip), vehicle: saline with Tween-80): 0 of 6 | survivor count (dose: 120.0 mg/kg/injection, schedule: Q01DX005 (ip), vehicle: saline with Tween-80): 0 of 6 | survivor count [12]: 0 of 6

CN=C(NC)c1ccc(NC(=O)/C=C/C(=O)Nc2ccc(C(=NC)NC)cc2)cc1
survivor count (dose: 100.0 mg/kg/injection, schedule: Q01DX005 (ip), vehicle: saline with Tween-80): 2 of 6 | survivor count (dose: 200.0 mg/kg/injection, schedule: Q01DX005 (ip), vehicle: saline with Tween-80): 0 of 6

C=CC(=NC(C)(C)C)Nc1ccccc1OC
T/C (dose: 12.5 mg/kg/injection, schedule: Q01DX009 (ip), vehicle: saline): 95, 99 [4 of 6 alive], 99 [5 of 6 alive], 118 % of control | survivor count (dose: 25.0 mg/kg/injection, schedule: Q01DX009 (ip), vehicle: saline): 0 of 6 | survivor count [13]: 0 of 5 | survivor count [5]: 0 of 6 | survivor count (dose: 50.0 mg/kg/injection, schedule: Q01DX009 (ip), vehicle: saline): 0 of 6 | survivor count [3]: 0 of 5 | survivor count [6]: 0 of 6 | survivor count [4]: 0 of 5 | survivor count [7]: 0 of 6

O=C(O)c1ccc([N+](=O)[O-])o1
survivor count [2]: 1 of 6

O=[N+]([O-])c1ccccc1C(Nc1nncs1)Nc1nncs1
T/C (dose: 400.0 mg/kg/injection, schedule: Q01DX005 (ip), vehicle: Klucel (hydroxypropylcellulose) (HPC)): 136 % of control

COc1cc(N(CCCl)CCCl)ccc1NC(=O)c1ccccc1
T/C (dose: 25.0 mg/kg/injection, schedule: Q04DX003 (ip), vehicle: saline sonified): 136 % of control | T/C (dose: 25.0 mg/kg/injection, schedule: Q04DX003 (ip), vehicle: saline with Tween-80): 131 % of control | survivor count [9]: 0 of 6 | survivor count [10]: 0 of 6 | survivor count [11]: 0 of 6

COc1ccc(C2CCCCCC2)c(OC)c1OC
survivor count [14]: 5 of 6

O=c1c2ccccc2nc2ccc(Cl)nn12
survivor count [7]: 5 of 6

CCC1(c2ccc(C)cc2)C(=O)NC(=S)NC1=O
survivor count [12]: 3 of 6

C=COC(=O)C(C)(CC)CC(C)C (stereo unspecified)
survivor count (dose: 200.0 mg/kg/injection, schedule: Q01DX009 (ip), vehicle: other): 4 of 6

C[N+](C)(C)/N=C(/CCC/C(=N\[N+](C)(C)C)c1ccccc1)c1ccccc1
survivor count (dose: 100.0 mg/kg/injection, schedule: Q04DX003 (ip), vehicle: Klucel (hydroxypropylcellulose) (HPC)): 0 of 6 | survivor count (dose: 200.0 mg/kg/injection, schedule: Q04DX003 (ip), vehicle: Klucel (hydroxypropylcellulose) (HPC)): 0 of 6 | survivor count (dose: 400.0 mg/kg/injection, schedule: Q04DX003 (ip), vehicle: Klucel (hydroxypropylcellulose) (HPC)): 0 of 6

CC(C)(CO)c1ccccc1[P+](C)(C)c1ccccc1
survivor count [1]: 3 of 6 | survivor count [14]: 0 of 6 | survivor count [2]: 0 of 6

CC1=CCCC1C1C=CCC1 (stereo unspecified) (tested in a mixture with another compound)
T/C [6]: 128 % of control [5 of 6 alive] | survivor count [7]: 0 of 6

C[CH2][Sn]([CH2]C)([n]1c(C)nc2ccccc21)[n]1c(C)nc2ccccc21
T/C (dose: 3.12 mg/kg/injection, schedule: Q01DX005 (ip), vehicle: Klucel (hydroxypropylcellulose) (HPC)): 131 % of control | T/C (dose: 6.25 mg/kg/injection, schedule: Q01DX005 (ip), vehicle: Klucel (hydroxypropylcellulose) (HPC)): 128 % of control [5 of 6 alive] | T/C [15]: 128 % of control [5 of 6 alive] | survivor count [15]: 4 of 6 | survivor count [13]: 0 of 6 | survivor count [3]: 0 of 6 | survivor count [4]: 0 of 6

COc1ccc2c(C)cc(N/N=C(\C)c3ccccn3)nc2c1
survivor count [3]: 6 of 6 | survivor count [4]: 1 of 6

O=[N+]([O-])c1ccc(O)c(O)c1
survivor count (dose: 100.0 mg/kg/injection, schedule: Q01DX009 (ip), vehicle: saline): 0 of 6 | survivor count (dose: 200.0 mg/kg/injection, schedule: Q01DX009 (ip), vehicle: saline): 0 of 6 | survivor count (dose: 400.0 mg/kg/injection, schedule: Q01DX009 (ip), vehicle: saline): 0 of 6 | survivor count (dose: 600.0 mg/kg/injection, schedule: Q01DX009 (ip), vehicle: saline): 0 of 6

O=C1N(Cl)C(=O)C2(c3ccccc3-c3ccccc32)N1Cl
survivor count [4]: 0 of 6

Cc1c(COC(=O)NC2CCCCC2)c(COC(=O)NC2CCCCC2)c2c3ccccc3c3ccccc3n12
T/C (dose: 200.0 mg/kg/injection, schedule: Q01DX009 (ip), vehicle: distilled water + Tween-80): 128 % of control | T/C (dose: 400.0 mg/kg/injection, schedule: Q01DX009 (ip), vehicle: distilled water + Tween-80): 132 % of control

O=C(c1ccccc1)N1CCCCC1
survivor count (dose: 400.0 mg/kg/injection, schedule: Q04DX003 (ip), vehicle: saline): 3 of 6

CCCCCCCOC(=O)c1ccc(O)cc1
survivor count [7]: 5 of 6

O=C(NC1CC1)C(Cl)Cl
survivor count [4]: 0 of 5

O=S(=O)(F)c1nc(Cl)c2[nH]cnc2n1
survivor count [3]: 0 of 6 | survivor count [4]: 0 of 6

Cc1nc2n(c1C(N)=O)CCS2
survivor count (dose: 400.0 mg/kg/injection, schedule: Q04DX002 (ip), vehicle: Klucel (hydroxypropylcellulose) (HPC)): 1 of 6

COc1cccc2c1C(=O)c1c(O)c3c(c(O)c1C2=O)C[C@@](O)(C(C)=O)C[C@@H]3OC1CC(N2CCCCC2)C(O)C(C)O1 (stereo partly specified)
T/C (dose: 3.12 mg/kg/injection, schedule: Q04DX003 (ip), vehicle: distilled water + Tween-80): 135 % of control | T/C (dose: 3.12 mg/kg/injection, schedule: Q04DX003 (ip), vehicle: water): 131 % of control | survivor count (dose: 50.0 mg/kg/injection, schedule: Q04DX003 (ip), vehicle: distilled water + Tween-80): 6 of 6 on day 9

CC/C(C)=C1\OC(=O)C(C)C(O)C(Cc2cccnc2)NC(=O)C(NC(=O)c2ncccc2O)C(C)OC1=O (stereo unspecified)
survivor count [8]: 6 of 6

Reference: PubChem BioAssay AID330 (DTP/NCI, 2004)
